The exact form of at least one protein or probe is not confirmed.
Molecular target: LmrR-Strep (Lactococcus lactis) (UniProt A2RI36)
Test: MST
Details: apparent Kd, MST: 20 mM Tris-HCl pH 8.0, 1 mM EDTA, 50 nM Cy5-DNA, 30 min incubation at 30 C, 30% LED, 40% laser power (30% laser for PlmrR), Hill fit, recombinant protein, protein details: Strep-tag

Chains of the proteins cited; added tags and fusions are not shown.
UniProt A2RI36, entry or part of it: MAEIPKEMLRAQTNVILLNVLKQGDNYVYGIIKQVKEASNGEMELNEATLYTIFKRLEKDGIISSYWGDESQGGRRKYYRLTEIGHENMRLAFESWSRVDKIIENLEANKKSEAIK

Sequence: AAGATTGAGAATAAGGCAACCCATTTATGCTTCATGATTGATTTGAAAATCATAAAATTCCTTTCTAGAGTTAAATAATGTAAACTACTTTACATTAAATTGAATTTTCAATTTCATTTTACTTCAAAATAATTTCAATAAATTTTTTGAGAAGATAATTATAACATTATTTTTTTTAGTAAACAAGCATTAATTGTTAATGCTGTTAAAGATTACAATAGTTAGTTTCATAAATGGTAAACTAACAAAAATATTGTAACGCTTTTTAAAGTTTAAGTCAACGATTTACGACGTTATTTGTATCTTCTTATGTTTTTATAAATTTAGAATTTAAAGTAAGGAATGAATCG (double strand) [PlmrCD (lmrCD promoter/operator region)]
- Kd (50 uM riboflavin, label: 5'-Cy5 on forward strand, probe letters rebuilt from the primers and the genome): 195 nM
- Kd (no riboflavin, Hill coefficient 1.78 +/- 0.17, label: 5'-Cy5 on forward strand, probe letters rebuilt from the primers and the genome): 82.1 nM

Sequence: CTCCTTGTTTTAGGACATTGAGCAAAATTACATTGGTTTGGGCTCGTAACATTTCTTTTGGTATTTCTGCCATTCTTTTTCCTTTCTATCATTTTAAACAAAGTATATTATACTTCACATTACTATGTAAGTCAAGGTACTTAAACTATTTATATAATATTTTATTTTTGACGACTTTCTACTATATAAGATAAGAAAAAATCATCTCCG (double strand) [PlmrR (lmrR promoter/operator region)]
- Kd (50 uM riboflavin, 30% laser power, probe letters rebuilt from the primers and the …): 5120 nM

Reference: publication PMC4534193, “Binding of the Lactococcal Drug Dependent Transcriptional Regulator LmrR to Its Ligands and Responsive Promoter Regions” (PLoS ONE, 2015)
